Results: the supplement of paper PMC11438910
The other results are listed elsewhere or left out. The signal is at background level for most entries.

Legend:
Test in all cases: fluorescence intensity of antibody binding to polysaccharide-coupled beads; higher = stronger binding
[1] = target: pneumococcal polysaccharide Pn18B
[2] = target: pneumococcal polysaccharide Pn18C
[3] = target: pneumococcal polysaccharide Pn18F
[4] = target: pneumococcal polysaccharide Pn19A
[5] = target: pneumococcal polysaccharide Pn19B
[6] = target: pneumococcal polysaccharide Pn19C
[7] = target: pneumococcal polysaccharide Pn19F
[8] = target: pneumococcal polysaccharide Pn2
[9] = target: pneumococcal polysaccharide Pn20A
[10] = target: pneumococcal polysaccharide Pn20B
[11] = target: pneumococcal polysaccharide Pn21
[12] = target: pneumococcal polysaccharide Pn22A
[13] = target: pneumococcal polysaccharide Pn22F
[14] = target: pneumococcal polysaccharide Pn23A
[15] = target: pneumococcal polysaccharide Pn23B
[16] = target: pneumococcal polysaccharide Pn23F
[17] = target: pneumococcal polysaccharide Pn24A
[18] = target: pneumococcal polysaccharide Pn24B
[19] = target: pneumococcal polysaccharide Pn24F
[20] = target: pneumococcal polysaccharide Pn25A
[21] = target: pneumococcal polysaccharide Pn25F
[22] = target: pneumococcal polysaccharide Pn27
[23] = target: pneumococcal polysaccharide Pn28A
[24] = antibody concentration 2.8593 ng/mL
[25] = antibody concentration 15.2894 ng/mL
[26] = antibody concentration 81.7561 ng/mL
[27] = antibody concentration 437.17 ng/mL
[28] = antibody concentration 2337.65 ng/mL
[29] = antibody concentration 12500 ng/mL
[30] = antibody concentration 0.1 ng/mL
[31] = antibody concentration 0.534724 ng/mL

B1: 3S41.3 (protein)
chain 1: EVQLVESGGGLVQPGGSLRLSCATSGFTFSNYWMYWFRQAPGKGLEWVSTISGSSSNTYYPDSVKGRFTISRDNAKNTLYLQINSLRAEDTAVYYCARRHDHSSGWAFDYWGQGVLVTVSS
chain 2: EIVMTQSPATLSLSPGERATLSCRASQSVGSNLAWYQQKPGQAPKLLIYDASSRATGIPDRFSGSGSGTDFTLTVSSLEPEDVGVYYCQQYNNWKTFGQGTKVEIK
fluorescence intensity [1, 24]: 29.8 MFI | fluorescence intensity [1, 25]: 29.2 MFI | fluorescence intensity [1, 26]: 34 MFI | fluorescence intensity [1, 27]: 35 MFI | fluorescence intensity [1, 28]: 43.5 MFI | fluorescence intensity [1, 29]: 95 MFI | fluorescence intensity [2, 30]: 18.5 MFI | fluorescence intensity [2, 31]: 18.2 MFI | fluorescence intensity [2, 24]: 17.5 MFI | fluorescence intensity [2, 25]: 19.5 MFI | fluorescence intensity [2, 26]: 20 MFI | fluorescence intensity [2, 27]: 28 MFI | fluorescence intensity [2, 28]: 42 MFI | fluorescence intensity [2, 29]: 84.5 MFI | fluorescence intensity [3, 30]: 22 MFI | fluorescence intensity [3, 31]: 22.5 MFI | fluorescence intensity [3, 24]: 21 MFI | fluorescence intensity [3, 25]: 22.5 MFI | fluorescence intensity [3, 26]: 24.5 MFI | fluorescence intensity [3, 27]: 34 MFI | fluorescence intensity [3, 28]: 44 MFI | fluorescence intensity [3, 29]: 100 MFI | fluorescence intensity [4, 30]: 18 MFI | fluorescence intensity [4, 31]: 17.5 MFI | fluorescence intensity [4, 24]: 18 MFI | fluorescence intensity [4, 25]: 17.5 MFI | fluorescence intensity [4, 26]: 17.5 MFI | fluorescence intensity [4, 27]: 23.5 MFI | fluorescence intensity [4, 28]: 59 MFI | fluorescence intensity [4, 29]: 148 MFI | fluorescence intensity [5, 30]: 28 MFI | fluorescence intensity [5, 31]: 28.5 MFI | fluorescence intensity [5, 24]: 28.2 MFI | fluorescence intensity [5, 25]: 28 MFI | fluorescence intensity [5, 26]: 30 MFI | fluorescence intensity [5, 27]: 56.8 MFI | fluorescence intensity [5, 28]: 426 MFI | fluorescence intensity [5, 29]: 1530 MFI | fluorescence intensity [6, 30]: 26 MFI | fluorescence intensity [6, 31]: 23.5 MFI | fluorescence intensity [6, 24]: 22.5 MFI | fluorescence intensity [6, 25]: 24.5 MFI | fluorescence intensity [6, 26]: 24 MFI | fluorescence intensity [6, 27]: 38.5 MFI | fluorescence intensity [6, 28]: 264 MFI | fluorescence intensity [6, 29]: 957 MFI | fluorescence intensity [7, 30]: 24.5 MFI | fluorescence intensity [7, 31]: 25 MFI | fluorescence intensity [7, 24]: 25 MFI | fluorescence intensity [7, 25]: 24.5 MFI | fluorescence intensity [7, 26]: 29 MFI | fluorescence intensity [7, 27]: 37.2 MFI | fluorescence intensity [7, 28]: 54 MFI | fluorescence intensity [7, 29]: 106 MFI | fluorescence intensity [8, 30]: 19 MFI | fluorescence intensity [8, 31]: 18 MFI | fluorescence intensity [8, 24]: 20 MFI | fluorescence intensity [8, 25]: 20.5 MFI | fluorescence intensity [8, 26]: 21.5 MFI | fluorescence intensity [8, 27]: 24.2 MFI | fluorescence intensity [8, 28]: 29.2 MFI | fluorescence intensity [8, 29]: 54.2 MFI | fluorescence intensity [9, 30]: 23 MFI | fluorescence intensity [9, 31]: 20.5 MFI | fluorescence intensity [9, 24]: 21.5 MFI | fluorescence intensity [9, 25]: 22 MFI | fluorescence intensity [9, 26]: 22.5 MFI | fluorescence intensity [9, 27]: 39.5 MFI | fluorescence intensity [9, 28]: 274 MFI | fluorescence intensity [9, 29]: 986 MFI | fluorescence intensity [10, 30]: 22 MFI | fluorescence intensity [10, 31]: 23 MFI | fluorescence intensity [10, 24]: 22 MFI | fluorescence intensity [10, 25]: 23 MFI | fluorescence intensity [10, 26]: 21.5 MFI | fluorescence intensity [10, 27]: 28 MFI | fluorescence intensity [10, 28]: 58 MFI | fluorescence intensity [10, 29]: 179 MFI | fluorescence intensity [11, 30]: 18.5 MFI | fluorescence intensity [11, 31]: 19.5 MFI | fluorescence intensity [11, 24]: 18 MFI | fluorescence intensity [11, 25]: 18 MFI | fluorescence intensity [11, 26]: 19 MFI | fluorescence intensity [11, 27]: 22.5 MFI | fluorescence intensity [11, 28]: 37.5 MFI | fluorescence intensity [11, 29]: 69.5 MFI | fluorescence intensity [12, 30]: 19.8 MFI | fluorescence intensity [12, 31]: 21.5 MFI | fluorescence intensity [12, 24]: 21.5 MFI | fluorescence intensity [12, 25]: 19.5 MFI | fluorescence intensity [12, 26]: 22.2 MFI | fluorescence intensity [12, 27]: 28 MFI | fluorescence intensity [12, 28]: 104 MFI | fluorescence intensity [12, 29]: 395 MFI | fluorescence intensity [13, 30]: 28 MFI | fluorescence intensity [13, 31]: 29.8 MFI | fluorescence intensity [13, 24]: 27.5 MFI | fluorescence intensity [13, 25]: 31.2 MFI | fluorescence intensity [13, 26]: 32 MFI | fluorescence intensity [13, 27]: 37.2 MFI | fluorescence intensity [13, 28]: 70.2 MFI | fluorescence intensity [13, 29]: 164 MFI | fluorescence intensity [14, 30]: 21.5 MFI | fluorescence intensity [14, 31]: 26.5 MFI | fluorescence intensity [14, 24]: 26 MFI | fluorescence intensity [14, 25]: 24 MFI | fluorescence intensity [14, 26]: 36 MFI | fluorescence intensity [14, 27]: 56 MFI | fluorescence intensity [14, 28]: 110 MFI | fluorescence intensity [14, 29]: 372 MFI | fluorescence intensity [15, 30]: 30.5 MFI | fluorescence intensity [15, 31]: 29.8 MFI | fluorescence intensity [15, 24]: 27 MFI | fluorescence intensity [15, 25]: 32 MFI | fluorescence intensity [15, 26]: 32 MFI | fluorescence intensity [15, 27]: 30.8 MFI | fluorescence intensity [15, 28]: 35.8 MFI | fluorescence intensity [15, 29]: 75.5 MFI | fluorescence intensity [16, 30]: 18.2 MFI | fluorescence intensity [16, 31]: 18.2 MFI | fluorescence intensity [16, 24]: 17.5 MFI | fluorescence intensity [16, 25]: 17.2 MFI | fluorescence intensity [16, 26]: 19.5 MFI | fluorescence intensity [16, 27]: 25.8 MFI | fluorescence intensity [16, 28]: 33.2 MFI | fluorescence intensity [16, 29]: 59 MFI | fluorescence intensity [17, 30]: 14.5 MFI | fluorescence intensity [17, 31]: 15.8 MFI | fluorescence intensity [17, 24]: 15.5 MFI | fluorescence intensity [17, 25]: 15.8 MFI | fluorescence intensity [17, 26]: 15.5 MFI | fluorescence intensity [17, 27]: 16.8 MFI | fluorescence intensity [17, 28]: 26.5 MFI | fluorescence intensity [17, 29]: 87 MFI | fluorescence intensity [18, 30]: 18 MFI | fluorescence intensity [18, 31]: 16.8 MFI | fluorescence intensity [18, 24]: 17.5 MFI | fluorescence intensity [18, 25]: 17.5 MFI | fluorescence intensity [18, 26]: 18 MFI | fluorescence intensity [18, 27]: 24 MFI | fluorescence intensity [18, 28]: 64.5 MFI | fluorescence intensity [18, 29]: 208 MFI | fluorescence intensity [19, 30]: 16.2 MFI | fluorescence intensity [19, 31]: 16.8 MFI | fluorescence intensity [19, 24]: 16.5 MFI | fluorescence intensity [19, 25]: 20 MFI | fluorescence intensity [19, 26]: 20 MFI | fluorescence intensity [19, 27]: 28.8 MFI | fluorescence intensity [19, 28]: 41.2 MFI | fluorescence intensity [19, 29]: 119 MFI | fluorescence intensity [20, 30]: 21.8 MFI | fluorescence intensity [20, 31]: 23.5 MFI | fluorescence intensity [20, 24]: 23.5 MFI | fluorescence intensity [20, 25]: 24.5 MFI | fluorescence intensity [20, 26]: 23.2 MFI | fluorescence intensity [20, 27]: 30.8 MFI | fluorescence intensity [20, 28]: 36.8 MFI | fluorescence intensity [20, 29]: 53.8 MFI | fluorescence intensity [21, 30]: 29 MFI | fluorescence intensity [21, 31]: 28.5 MFI | fluorescence intensity [21, 24]: 28.8 MFI | fluorescence intensity [21, 25]: 29.5 MFI | fluorescence intensity [21, 26]: 28 MFI | fluorescence intensity [21, 27]: 35.8 MFI | fluorescence intensity [21, 28]: 73.2 MFI | fluorescence intensity [21, 29]: 172 MFI | fluorescence intensity [22, 30]: 15.5 MFI | fluorescence intensity [22, 31]: 15 MFI | fluorescence intensity [22, 24]: 17 MFI | fluorescence intensity [22, 25]: 16.5 MFI | fluorescence intensity [22, 26]: 20.5 MFI | fluorescence intensity [22, 27]: 76 MFI | fluorescence intensity [22, 28]: 551 MFI | fluorescence intensity [22, 29]: 1200 MFI | fluorescence intensity [23, 30]: 24 MFI | fluorescence intensity [23, 31]: 27 MFI | fluorescence intensity [23, 24]: 26 MFI | fluorescence intensity [23, 25]: 26 MFI | fluorescence intensity [23, 26]: 27 MFI | fluorescence intensity [23, 27]: 29 MFI
